Reference: article doi:10.1101/2020.09.30.319939
Results are given in words; binding and its absence hold for the method and conditions named. Binding seen in cells or lysates may run through a third protein. Some results given as binding are weak or reduced against the parent protein; the word gives no strength.

Molecular target: T1, Slt2p-3HA (S. cerevisiae) (UniProt Q00772)
T1 sequence: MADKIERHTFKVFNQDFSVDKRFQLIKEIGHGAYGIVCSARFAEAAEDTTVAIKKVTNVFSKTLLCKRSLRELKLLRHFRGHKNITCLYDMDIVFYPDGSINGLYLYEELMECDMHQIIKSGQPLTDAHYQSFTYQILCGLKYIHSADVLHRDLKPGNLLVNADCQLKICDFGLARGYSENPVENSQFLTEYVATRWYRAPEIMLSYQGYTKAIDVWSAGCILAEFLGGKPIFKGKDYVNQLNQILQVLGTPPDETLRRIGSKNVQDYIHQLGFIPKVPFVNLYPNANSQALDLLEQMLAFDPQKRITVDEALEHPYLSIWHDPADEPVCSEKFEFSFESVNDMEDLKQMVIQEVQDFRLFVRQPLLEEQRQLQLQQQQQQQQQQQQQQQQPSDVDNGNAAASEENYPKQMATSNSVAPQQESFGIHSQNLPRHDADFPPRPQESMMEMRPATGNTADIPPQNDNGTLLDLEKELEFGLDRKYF
Assay: co-IP

B1: Rbp1p (endogenous) (protein, UniProt P32831 1-672)
chain: MMSNVANASQRQENPYIIPLPPSSTVETSTEPPRTLWMGDLDPSFDEATIEEIWSKLDKKVIVKLIRAKKNLLIPCSSTSSSNNNTSEENAENQQSASNSTDQLDNSQMININGISFIDPSTTQLHHAGYCFVEFETQKDAKFALSLNATPLPNFYSPTTNSQTNPTFKRTFRLNWASGATLQSSIPSTPEFSLFVGDLSPTATEADLLSLFQTRFKSVKTVRVMTDPLTGSSRCFGFVRFGDEDERRRALIEMSGKWFQGRALRVAYATPRNNMMLQLQEQQQQQQQLQQQHQQLDQEDNNGPLLIKTANNLIQNNSNMLPLNALHNAPPMHLNEGGISNMRVNDSLPSNTYNTDPTNTTVFVGGLVPKTTEFQLRSLFKPFGPILNVRIPNGKNCGFVKFEKRIDAEASIQGLQGFIVGGSPIRLSWGRPSSSNAKTNSTIMGASQYMSSNGLRAPSAASSVDNSKQILEQYAEDKRRLFLHQQQQQQQQQQQDGNFSMEQMAHNNYYNYNNYDYHRNKNGSHSDLVNLQRSNVPYMQEDGALYPHQYSSPSYSLHPTGNQFSNATNNLPQFGNAMSISMQLPNGNSNKTASSMNTNPNTNMIMNSNMNMNMNVNPVPYGMGNGANMYDVSRMMTPPLNIAPNSNNSKSSIMNKHPNRNNVPPIHPSLLH
binding: binds
